Laboratory results from patent US20230338463A1, “ICD PEPTIDE AND USE THEREOF FOR HAVING CYTOTOXIC ACTIVITY ON CANCER CELLS” (NATIONAL TSING HUA UNIVERSITY, priority 2022, published 2023).
At least one peptide structure holds a part that was inferred or is arguable (an end, a ring closure or a residue). Some entries share one result that the patent states for a list of compounds. Non-standard residues stand in square brackets, D forms with d. Residues, ends and D or L forms follow the SMILES beside them. Bip = N[C@@H](Cc1ccc(-c2ccccc2)cc1)C(=O)O; Dip = N[C@H](C(=O)O)C(c1ccccc1)c1ccccc1

Key:
PC9 cells = assay type: cell-based, human; conditions: PC9, 2 × IC50, within 2 hours
MN-11 cells [1] = experiment: DCFDA cellular ROS detection, MN-11; assay type: cell-based, murine; conditions: MN-11, 2 × IC50, 2-hour treatment
Protocol: However, MN-11 cells were seeded at the density of 25,000 cells/well in the 96-well black plate and allowed to adhere for 24 hours. Cells were washed with a 100 µL/well of PBS to remove the RPMI 1640 medium, and incubated with 100 µL of the 25 µM DCFDA solution for 45 minutes at 37° C. in the dark condition. 100 µL/ well of PBS buffer was washed again for the removal of 25 µM DCFDA solution. The MN-11 cells were treated with Nal-P-113, Bip-P-113 and Dip-P-113 at 2× IC50 for 2 hours. Cells incubated with DMEM without phenol red was used as negative control, and the positive control was tertbutyl hydroperoxide (TBHP) diluted in the 1x Supplemented Buffer. The fluorescence intensity of cellular ROS was determined to an excitation wavelength of 485 nm and an emission wavelength of 535 nm on the Wallac VICTOR 3 Multilabel plate reader (PerkinElmer, Shelton, CT, USA).

PC 9 cells = experiment: Extracellular cytochrome c ELISA, PC 9; assay type: cell-based, human
Protocol: The cytochrome c release was a part of mitochondrial damage-associated molecular patterns, therefore the amount of cytochrome c released into supernatant were measured by cytochrome c ELISA assay.
The cells were washed three times using PBS solution to remove all serum components and 1× 10^6 cells/ mL was solubilised in ice-cold 0.5% Triton-X 100-PBS solution at 2-8° C. for 10 minutes. Then, the speed of 16,000 xg was applied to centrifuge the extract for another 10 minutes, and serially dilute the aliquot of supernatant collected with Calibrator Diluent RD5-18 as described in the manufacturer’s protocol.
Quantifying the volume of cytochrome c released and the results were presented in FIGS. 7A-7C via ELISA assay for 0.5, 1, 1.5, and 2 hours. SEQ ID NO:4 group induced a relatively high amount of cytochrome c compared to SEQ ID NO:3 group and SEQ ID NO: 5 group. The cytochrome c release for SEQ ID NO:4 group was double the amount of SEQ ID NO:3 group and SEQ ID NO: 5 group. The trend of cytochrome c release in SEQ ID NO:4 and SEQ ID NO:3 treated PC 9 cells were escalating from 30 minutes to 4 hours, in contrast the SEQ ID NO: 5 group has fluctuating trend. The amount of cytochrome c release has come to the maximal value of nearly 15 ng/mL at 4 hours while the minimum value of 3 ng/mL at 30 minutes of ICD peptide incubation. The highest amount of cytochrome c detected in the supernatant for SEQ ID NO:3 and SEQ ID NO: 5 were around 3.5 ng/mL and lower than 2 ng/mL for the least.

MN-11 cells [2] = experiment: PI/Hoechst 33342 staining, plasma membrane integrity; assay type: cell-based, murine; conditions: MN-11, 2× IC50, 2 hrs, data not shown
Protocol: To examine the membrane-lytic activities of peptides, the PI/Hoechst 33342 staining was performed in this embodiment. The PI dye was used to stain damaged/dead cells, and Hoechst 33342 was used to specifically stain the nuclei of living cells. MN-11 cells were seeded at 50,000 cells/well in a RPMI medium and allowed to adhere for 24 hours. Then the cells were replaced with serum-free RPMI medium, and then treated with 2× IC50 peptides at 37° C. for 2 hrs. DMEM medium without peptide was used as negative control. The PI and Hoechst 33342 were added at a final concentration of 1 µg/ml for 20 mins. The cells were observed using the inverted fluorescent microscope Zeiss equipped with a 40× oil objective lens (Carl Zeiss, Germany). The experiments were repeated three times independently
To examine the membrane-lytic activities of Nal-P-113, Bip-P-113, and Dip-P-113, the DNA binding fluorescent dye Propidium iodide (PI) was used to stain damaged/dead cells, and Hoechst 33342 was used to specifically stain the nuclei of living cells.

[3] = PC 9, 2-fold IC50, time not stated

Structure (SMILES) | cells killed (PC9 cells) | fluorescence intensity of cellular ROS (ROS production) (MN-11 cells [1]) | cytochrome c release, minimum value (PC 9 cells; PC 9, 2-fold IC50, at 30 minutes) | cytochrome c release, maximal value (PC 9 cells; PC 9, 2-fold IC50, at 4 hours) | plasma membrane integrity (PI entering cells) (MN-11 cells [2]) | highest amount of cytochrome c detected in the supernatant (PC 9 cells; [3]) | least amount of cytochrome c detected in the supernatant (PC 9 cells; [3])
CC(=O)N[C@@H](C)C(=O)N[C@@H](CCCCN)C(=O)N[C@@H](CCCNC(=N)N)C(=O)N[C@@H](Cc1ccc(-c2ccccc2)cc1)C(=O)N[C@@H](Cc1ccc(-c2ccccc2)cc1)C(=O)NCC(=O)N[C@@H](Cc1ccc(O)cc1)C(=O)N[C@@H](CCCCN)C(=O)N[C@@H](CCCNC(=N)N)C(=O)N[C@@H](CCCCN)C(=O)N[C@@H](Cc1ccccc1)C(=O)N[C@@H](Cc1ccc(-c2ccccc2)cc1)C(N)=O [SEQ ID NO:4, Ac-AKR Bip Bip GYKRKF Bip-NH2] (Ac-AKR[Bip][Bip]GYKRKF[Bip]-NH2) | more than 80% | did not change | 3 ng/mL | ~15 ng/mL | can cause damage to the plasma membrane integrity | – | –
CC(=O)N[C@@H](C)C(=O)N[C@@H](CCCCN)C(=O)N[C@@H](CCCNC(=N)N)C(=O)N[C@H](C(=O)N[C@H](C(=O)NCC(=O)N[C@@H](Cc1ccc(O)cc1)C(=O)N[C@@H](CCCCN)C(=O)N[C@@H](CCCNC(=N)N)C(=O)N[C@@H](CCCCN)C(=O)N[C@@H](Cc1ccccc1)C(=O)N[C@H](C(N)=O)C(c1ccccc1)c1ccccc1)C(c1ccccc1)c1ccccc1)C(c1ccccc1)c1ccccc1 [SEQ ID NO: 5, Ac-AKR Dip Dip GYKRKFDip-NH2] (Ac-AKR[Dip][Dip]GYKRKF[Dip]-NH2) | – | did not change | – | – | can cause damage to the plasma membrane integrity | around 3.5 ng/mL | lower than 2 ng/mL
